{
  "source": "patent US20030105115A1",
  "about": "“Novel pyridopyrimidines and uses thereof” (priority 2001, published 2003)",
  "experiment": "Hydroxyapatite assay (hydroxyapatite adsorption chromatography, bone-targeting potential)",
  "format": "physicochemical",
  "settings": "corrected retention K=(retention time-void time)/void on TSK-Gel HA 1000 HPLC column; linear gradient 10 mM to 500 mM sodium phosphate, 0.15 N NaCl, pH 6.8",
  "source_text": "Hydroxyapatite is the principal mineral component of bone. Hydroxyapatite adsorption chromatography is used as an assay to evaluate the bone-targeting potential of both individual bone-targeting moieties (“monomers”) and of pharmaceuticals incorporating bone-targeting groups.\nThe rentention time of the compound is expressed in terms of K=(retention time-void time)/void. This K value is corrected using two reference compounds to correct from inter-column and inter-system variation to obtain a K′ value.\nReference Compounds: K′ values were determined for known bone targeted compounds, the bisphosphonate, alendronate and tetracycline.",
  "note": "For at least one compound, name, drawing or mass did not settle the structure.",
  "data": [
    {"compound": "CN(C)[C@@H]1C(O)=C(C(N)=O)C(=O)[C@@]2(O)C(O)=C3C(=O)c4c(O)cccc4[C@@](C)(O)[C@H]3C[C@@H]12", "note": "[tetracycline]", "values": [
      {"measurement": "K′ value", "result": 2.0}
    ]}
  ]
}
